# PMC7939391, “[4Fe-4S] cluster trafficking mediated by Arabidopsis mitochondrial ISCA and NFU proteins” (The Journal of Biological Chemistry, 2021)
# Results are given in words; binding and its absence hold for the method and conditions named. Sequences can lack the tags named with a protein.
# T1: Arabidopsis thaliana NFU5, mature form, Gal4 fusion for yeast two-hybrid (Arabidopsis thaliana) (UniProt Q9C8J2)
# T1 sequence: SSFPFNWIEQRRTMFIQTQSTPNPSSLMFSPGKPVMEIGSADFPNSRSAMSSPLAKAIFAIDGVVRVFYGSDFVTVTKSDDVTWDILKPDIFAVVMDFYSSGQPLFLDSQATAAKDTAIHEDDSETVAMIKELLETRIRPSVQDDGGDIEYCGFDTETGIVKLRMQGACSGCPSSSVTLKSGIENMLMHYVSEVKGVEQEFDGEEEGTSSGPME
# T2: Arabidopsis thaliana NFU4, mature form, Gal4 fusion for yeast two-hybrid (Arabidopsis thaliana) (UniProt Q9LIG6)
# T2 sequence: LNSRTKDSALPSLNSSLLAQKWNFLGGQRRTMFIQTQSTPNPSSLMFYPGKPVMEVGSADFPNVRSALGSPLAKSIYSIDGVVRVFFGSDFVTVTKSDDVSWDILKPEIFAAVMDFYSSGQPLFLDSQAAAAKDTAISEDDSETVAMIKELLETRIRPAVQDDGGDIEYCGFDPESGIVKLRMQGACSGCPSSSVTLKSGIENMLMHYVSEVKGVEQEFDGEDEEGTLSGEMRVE
# B1: Arabidopsis thaliana GRXS15, mature form, Gal4 fusion for yeast two-hybrid (protein, UniProt Q8LBK6 38-169)
# chain: SSTVPSDSDTHDDFKPTQKVPPDSTDSLKDIVENDVKDNPVMIYMKGVPESPQCGFSSLAVRVLQQYNVPISSRNILEDQELKNAVKSFSHWPTFPQIFIKGEFIGGSDIILNMHKEGELEQKLKDVSGNQD
# Experiments:
# [1] = target: T1, Arabidopsis thaliana NFU5, mature form, Gal4 fusion for yeast two-hybrid (Arabidopsis thaliana); test: two-hybrid; binary Gal4-based Y2H in yeast strain CY306; NFU4/NFU5 (mature forms or separate domains) fused to the Gal4 DNA-binding domain, ISC components fused to the Gal4 activation domain; growth on -His-Trp-Leu medium at 30 °C with 2 or 5 mM 3-AT, read after 5 days
# [2] = target: T2, Arabidopsis thaliana NFU4, mature form, Gal4 fusion for yeast two-hybrid (Arabidopsis thaliana); test: as above
binder,measurement,setting,value
B1,binding,[1],no binding
same,binding,[2],no binding
